Laboratory results published in PubChem BioAssay AID651706 (NMMLSC, 2012).
The list shows a part of the results. Some of these compounds have results that are not shown, active ones among them.

Experiment: inducers of myeloid progenitor differentiation, confirmation, cell-based, GFP/Mac1 flow cytometry, cherry pick 01 (AID 651706);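 further: share of live cells carrying both lysozyme GFP and MAC1 staining after four days; test concentration not given here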
Details: ER-HoxA9 myeloid progenitors, measured here: percent double positive cells, stronger effect = higher value
Compound `CCN(CC)CC(C)C(C)OC(=O)C(O)(c1ccccc1)c1ccccc1` (stereo unspecified) has a double positive cells of 1.7%.
